From ChEMBL document CHEMBL3988442, “University of Dundee, Small-Polar-MMV Screening Library” (2021).

The chains behind the UniProt entries cited, without tags or fusion partners. Residues count along the entry.
UniProt I6X8D2, whole entry: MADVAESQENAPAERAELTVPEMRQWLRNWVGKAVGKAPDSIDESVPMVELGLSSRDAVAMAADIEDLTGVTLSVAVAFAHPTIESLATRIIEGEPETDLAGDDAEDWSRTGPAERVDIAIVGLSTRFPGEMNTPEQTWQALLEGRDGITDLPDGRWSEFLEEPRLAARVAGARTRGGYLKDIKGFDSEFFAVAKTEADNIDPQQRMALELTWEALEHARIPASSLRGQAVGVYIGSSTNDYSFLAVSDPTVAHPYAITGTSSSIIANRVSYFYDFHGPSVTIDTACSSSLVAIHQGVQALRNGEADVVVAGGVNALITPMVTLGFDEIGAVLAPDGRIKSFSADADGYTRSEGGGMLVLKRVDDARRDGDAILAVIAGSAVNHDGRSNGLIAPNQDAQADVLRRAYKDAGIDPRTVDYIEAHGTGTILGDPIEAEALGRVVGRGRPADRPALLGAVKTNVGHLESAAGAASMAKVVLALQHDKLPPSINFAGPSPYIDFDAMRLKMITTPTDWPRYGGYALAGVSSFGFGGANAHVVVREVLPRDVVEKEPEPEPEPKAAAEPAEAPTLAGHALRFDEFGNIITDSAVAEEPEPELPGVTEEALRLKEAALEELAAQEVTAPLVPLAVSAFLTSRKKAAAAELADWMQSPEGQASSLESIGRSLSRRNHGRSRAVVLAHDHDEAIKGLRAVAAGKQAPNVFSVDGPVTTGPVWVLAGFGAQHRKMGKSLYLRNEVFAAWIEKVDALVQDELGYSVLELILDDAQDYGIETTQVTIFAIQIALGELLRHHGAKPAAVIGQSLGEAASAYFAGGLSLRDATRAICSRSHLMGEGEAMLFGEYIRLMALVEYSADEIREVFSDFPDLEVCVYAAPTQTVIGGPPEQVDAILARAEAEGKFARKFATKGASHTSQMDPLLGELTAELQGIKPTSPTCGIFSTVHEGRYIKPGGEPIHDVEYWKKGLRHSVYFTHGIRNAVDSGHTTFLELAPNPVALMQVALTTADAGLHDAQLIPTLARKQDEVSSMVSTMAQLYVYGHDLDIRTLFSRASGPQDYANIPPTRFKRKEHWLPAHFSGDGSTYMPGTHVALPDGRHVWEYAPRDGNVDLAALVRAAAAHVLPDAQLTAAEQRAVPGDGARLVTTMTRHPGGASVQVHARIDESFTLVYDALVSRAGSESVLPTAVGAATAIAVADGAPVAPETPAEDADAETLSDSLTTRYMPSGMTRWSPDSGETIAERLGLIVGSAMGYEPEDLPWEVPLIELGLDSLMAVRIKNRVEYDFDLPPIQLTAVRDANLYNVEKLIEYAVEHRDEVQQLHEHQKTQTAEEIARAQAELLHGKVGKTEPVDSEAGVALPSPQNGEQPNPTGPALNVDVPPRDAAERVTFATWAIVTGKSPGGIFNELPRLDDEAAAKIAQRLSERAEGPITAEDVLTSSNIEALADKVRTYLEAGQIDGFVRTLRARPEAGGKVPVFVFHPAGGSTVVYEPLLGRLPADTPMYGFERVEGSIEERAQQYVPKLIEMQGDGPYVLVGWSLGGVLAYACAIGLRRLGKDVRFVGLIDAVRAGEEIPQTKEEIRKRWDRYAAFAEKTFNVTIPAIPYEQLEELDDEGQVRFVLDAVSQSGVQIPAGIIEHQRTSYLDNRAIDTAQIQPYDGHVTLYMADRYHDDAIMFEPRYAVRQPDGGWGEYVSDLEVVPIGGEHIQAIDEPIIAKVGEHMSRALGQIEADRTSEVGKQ
UniProt A4I591, 1-473: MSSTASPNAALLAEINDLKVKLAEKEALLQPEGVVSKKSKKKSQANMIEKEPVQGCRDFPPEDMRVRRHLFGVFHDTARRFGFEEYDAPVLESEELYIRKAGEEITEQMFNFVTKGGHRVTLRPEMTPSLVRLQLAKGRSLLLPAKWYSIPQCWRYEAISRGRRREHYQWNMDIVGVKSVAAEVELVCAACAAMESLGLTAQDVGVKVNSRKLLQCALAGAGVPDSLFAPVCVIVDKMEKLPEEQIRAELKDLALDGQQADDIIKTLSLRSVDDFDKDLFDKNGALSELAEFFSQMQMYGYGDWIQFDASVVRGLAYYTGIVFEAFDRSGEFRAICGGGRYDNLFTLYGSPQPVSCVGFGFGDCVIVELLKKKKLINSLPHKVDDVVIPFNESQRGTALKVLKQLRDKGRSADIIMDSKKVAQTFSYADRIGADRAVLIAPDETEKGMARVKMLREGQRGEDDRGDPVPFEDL

The filed quantity is “Percent Effect” (%). The controls that fix the scale are not given in the record; negative values are as filed. This is an unselected part of the compounds tested. Two or more numbers in one place are separate tests of the same structure; such repeats can differ widely. A dash means the value is not listed here; it may have been measured.

Leishmania in macrophages: 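Cell assay of Leishmania donovani living inside macrophages; the read-out is not stated. Concentration: 30 µM. Higher reads as stronger inhibition (inferred: compounds with an IC50 in retests scored well above the rest). Size under these conditions: about 69,000 compounds, about 1,000 of them at 50% or above in at least one test.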
Pks13 thioesterase: 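Enzyme assay of the thioesterase domain of polyketide synthase 13; the read-out is not stated. Target: Polyketide synthase Pks13, Mycobacterium tuberculosis (UniProt I6X8D2). Concentration: 30 µM. Higher reads as stronger inhibition (inferred from which compounds were picked for retests). Size under these conditions: about 67,000 compounds, about 300 of them at 50% or above in at least one test.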
LiHisRS: 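Histidine-tRNA ligase, Leishmania infantum (UniProt A4I591). Enzyme assay of histidyl-tRNA synthetase; the read-out is not stated. Compounds at 30 µM. Direction is inferred from retests: higher values go with stronger inhibition. The assay is labelled LdHisRS but filed under L. infantum. Of about 69,000 compounds tested this way, about 410 (0.6%) reached 50% or more in at least one test.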

compound,Leishmania in macrophages,Pks13 thioesterase,LiHisRS
CC(C)Nc1ncnc2c1CCN(C(=O)Cc1ccccn1)CC2,-,-22.71,-3.883
CC(CNC(=O)CCCc1ccccn1)c1ccsc1 (stereo not drawn),21.92,-9.833,12
CCOc1ncccc1C(=O)N(C)C1CCN(c2ccccn2)CC1,20.85,-13.29,16.81
O=S(=O)(CC1CCOCC1)NCc1ccnc(O)c1,-2.69,-2.551,-1.754
Cc1cc(NS(=O)(=O)c2cccs2)ccc1-n1cccc1C(=O)O,9.166,-1.158,2.679
[H][C@@]12OCCN(Cc3cccc(F)c3)[C@@]1([H])CC[C@@H]2OCc1ccccn1,12.4,-,-
Cc1oncc1C(=O)N1CCC2(CC1)CC(c1ccccc1)C(=O)N2C (stereo not drawn),1.35,-13.16,-52.83
COc1cnc(C2(O)CCN(C(=O)c3ccncc3)CC2)c(OC)n1,-9.59,-38.73,13.89
CCn1cc(CN2C[C@@H]3CCCN3C[C@H]2CCSC)c(C)n1,-,-3.106,14
Cc1ccc(C2(O)CCN(C(=O)CCn3ccc(=O)[nH]c3=O)CC2)nc1,31.61,8.278,15.29
CNCc1n[nH]c(=O)n1CC1CCCCC1,16.78,-33.28,23.08
CCN(c1cc(C)cc(C)c1)S(=O)(=O)c1cc(C(=O)O)cs1,-15.45,-5.887,3.509
COCc1ccccc1CNC(=O)CN1CCCC1c1noc(C)n1 (stereo not drawn),12.84,-8.531,1.835
Cn1cnc2c1C(COCC1CCOCC1)CN(c1ncccn1)C2.O=C(O)C(F)(F)F.O=C(O)C(F)(F)F (stereo not drawn),35.5,-,-
COc1ccc(C(C)NC(=O)C2CCN(S(C)(=O)=O)CC2)cc1C (stereo not drawn),20.59,0.9544,8.235
Cl.O=C(Nc1cc(C(F)(F)F)c[nH]c1=O)C1CCCCN1 (stereo not drawn),10.48,-,-
CC(C)Cc1noc(CNc2ccccc2CC(=O)N(C)C)n1,22.22,-31.58,5.714
CCn1ncc2c1C(COCC1CC1)N(Cc1c(C)noc1C)CC2 (stereo not drawn),-,-5.744,9.402
COCC(=O)N1CCc2nc(C(=O)Nc3cccnc3)sc2CC1,-11.79,-23.28,7.895
CN1CCN(C2CCN(C(=O)CCC3CCCC3)CC2)CC1,-,-1.159,1.55
N#Cc1ccc(C(=O)N2CC[C@H]3[C@@H]2CCC(=O)N3c2cccnc2)cc1,-,-18.34,12.03
O=C(NC[C@H]1OC[C@@H](NC2CCC(F)(F)CC2)[C@@H]1O)Nc1ccccc1,5.48,-5.601,20.27
COc1ccc(C(N)=O)cc1NCc1noc(-c2ccsc2)n1,26.54,-19.24,4.839
Nc1nc2c(s1)C(c1c(F)cccc1Cl)CC(=O)N2 (stereo not drawn),1.097,3.321,90
CN1CCCN(C(=O)c2cccn2-c2ccc3c(c2)OCCO3)CC1,-40.15,-9.834,4.082
COc1ccc(C)cc1C(C)NCc1cnnn1C (stereo not drawn),21.26,-29.7,-9.639
O=C(O)C(F)(F)F.[H][C@@]12CCN(c3cccnc3)C[C@]1([H])CN(C(=O)c1cccc(C)c1)C2,3.652,-,-
O=C(CSCC1CC1)N1CCc2[nH]nc(COc3ccccc3)c2C1,-16.52,-17.95,26.19
CCn1cc(NC(=O)C2CCN(Cc3ccccc3)CC2)cn1,-27.08 and 10.5,-5.099,23.08
Fc1cnc(N2CCCC3(CCN(Cc4cccs4)C3)C2)nc1 (stereo not drawn),-,8.254,11.93
CC(C)c1nccn1C(C)C(=O)NC1Cc2ccccc2C1 (stereo not drawn),-4.837,-50.05,10.67
[H][C@@]12CCCN1C[C@@H](CCSC)N(Cc1cnn(CC)c1)C2,17.38,-,-
FC1(F)CCNCC12CCN(c1ccccn1)C2 (stereo not drawn),9.449,8.103,2.564
Cc1nc2n(n1)CC(Nc1nc(-c3ccccc3)no1)CC2 (stereo not drawn),25.09,-5.215,23.21
COc1ccc(S(=O)(=O)NCC(N)c2ccccc2)c(C)c1.Cl (stereo not drawn),11,-,-
O=C(NCC1CC1)[C@H]1CN(Cc2nccs2)C[C@H]2OCC[C@@H]12,-,-8.884,15
CCc1cc(NC2CCS(=O)(=O)C2)nc(N2CCCCC2)n1 (stereo not drawn),18.98,-15.59,11.11
CN1[C@H](Cn2cncn2)C[C@@H]2CN(Cc3cccc(C#N)c3)CC[C@@H]21,-,-7.776,17.31
CC(C)c1cc(C(=O)N2C[C@@H](C)[C@](O)(C3CC3)C2)[nH]n1,-8.85,-38.47,13.33
[H][C@@]12CS(=O)(=O)C[C@]1([H])N(Cc1cccc(C)n1)CCN2C(=O)N(C)C,5.439,-,-
COc1nc2cc(C)ccc2cc1CN(C)Cc1n[nH]c2c1CCCC2,19.2,-2.784,4.348
COCc1ccccc1NC(=O)NC(C)c1ccc(C)o1 (stereo not drawn),-14.85,-36.8,16.39
O=C(O)C(F)(F)F.O=C(c1ccccn1)N1CCn2cnc(COCC3CC3)c2C1,2.8,-,-
O=C(c1cn(-c2ccccc2Cl)nn1)N1CCCSCC1,23.43,-13.02,22.64
Cc1nc(C)n(CC2CCCN2Cc2nc(C3CC3)no2)n1 (stereo not drawn),8.242,-,18.4
CN(C)c1cc(CNC(=O)c2cn(-c3ccc(F)cc3)nn2)ccn1,22.02,-15.45,13.33
Cc1cc(C(=O)N2CC[C@](C)(O)[C@H](C)C2)c(C)n1C,-2.558,-1.958,16.67
CS(=O)(=O)NCCn1ccc(-c2cccs2)n1,19.3,3.177,-20.34

Repeated from the top, 6 entries:

compound	Leishmania in macrophages	Pks13 thioesterase	LiHisRS
CC(C)Nc1ncnc2c1CCN(C(=O)Cc1ccccn1)CC2	-	-22.71	-3.883
CC(CNC(=O)CCCc1ccccn1)c1ccsc1 (stereo not drawn)	21.92	-9.833	12
CCOc1ncccc1C(=O)N(C)C1CCN(c2ccccn2)CC1	20.85	-13.29	16.81
O=S(=O)(CC1CCOCC1)NCc1ccnc(O)c1	-2.69	-2.551	-1.754
Cc1cc(NS(=O)(=O)c2cccs2)ccc1-n1cccc1C(=O)O	9.166	-1.158	2.679
[H][C@@]12OCCN(Cc3cccc(F)c3)[C@@]1([H])CC[C@@H]2OCc1ccccn1	12.4	-	-